The experiment concerns B6C3F1 mice, ip Sarcoma M5076, median survival T/C. Put plainly: NCI In Vivo Anticancer Drug Screen. Data for tumor model Sarcoma M5076 (intraperitoneal) in B6C3F1 mice. The conditions noted are these: T/C endpoint: median survival time, higher T/C = longer survival. The method, boiled down: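 Transplantable tumour in mice; compound-treated vs vehicle-treated groups. Read-out: survival. Value = treated/control ratio.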

[1] abbreviates: dose: 16.0 mg/kg/injection, schedule: Q04DX004 (ip), vehicle: saline + alcohol.
Setting [2] is: dose: 200.0 mg/kg/injection, schedule: Q04DX004 (ip), vehicle: saline with Tween-80.
[3] abbreviates: dose: 400.0 mg/kg/injection, schedule: Q04DX004 (ip), vehicle: Klucel (hydroxypropylcellulose) (HPC).

The structures appear in SMILES notation. The list does not hold the whole screen: it gathers tests that were run many times, whatever their T/C, doses with no T/C, and many T/C values between a quarter and a half above the control. Further doses and runs are listed elsewhere. T/C gives the treated animals as a percentage of the vehicle group. Some entries give survivors of the animals treated and no T/C: the source holds a T/C of zero for them, seemingly a mark for toxic or unscored doses. Some survivor counts are full or nearly so, which does not show that the dose was tolerated: survival well below the control is almost never listed, so the zero probably covers shortened survival too. Counts of survivors are from the toxicity check (mostly the fifth day) where no day follows; animals may have died later. Schedule codes are those of the source, read here as Q, the interval in days (D) or hours (H), X, the number of doses. Some doses were run more than once; their values stand side by side, smallest first. For survival time, the PubChem record calls one and a half times the control and up active, and a quarter to a half above the control has no call in these data; cut-offs in other NCI protocols can differ. Some T/C values are followed by the survivors on the day toxicity was checked, most often the fifth; where none is given, no animal had died by that day.

As to `C=C1C(O)C2(O)OCC34C(CC5C(C)=CC(=O)C(O)C5(C)C23)OC(=O)C(OC(=O)C/C=C/CCCCCCCC)C14` (stereo not drawn), the T/C reads like this: (dose: 4.0 mg/kg/injection, schedule: Q04DX004 (ip), vehicle: saline + alcohol) 130 % of control; (dose: 4.8 mg/kg/injection, schedule: Q04DX004 (ip), vehicle: saline + alcohol) 138 % of control; (dose: 8.0 mg/kg/injection, schedule: Q04DX004 (ip), vehicle: saline + alcohol, evaluated on day 50) 121 % of control [9 of 10 alive on day 14]; (dose: 8.0 mg/kg/injection, schedule: Q04DX004 (ip), vehicle: saline + alcohol, evaluated on day 60) 102, 117, 168 % of control. In addition, the survivor count by setting is: (dose: 13.33 mg/kg/injection, schedule: Q04DX004 (ip), vehicle: saline + alcohol) 4 of 10 on day 14; under setting [1], 0 of 10 on day 14; (dose: 22.22 mg/kg/injection, schedule: Q04DX004 (ip), vehicle: saline + alcohol) 4 of 10 on day 14 and 5 of 10 on day 14; (dose: 32.0 mg/kg/injection, schedule: Q04DX004 (ip), vehicle: saline + alcohol) 0 of 10 on day 14; (dose: 64.0 mg/kg/injection, schedule: Q04DX004 (ip), vehicle: saline + alcohol) 0 of 10 on day 14.
For the compound `COC1=C(OC)C(=O)C(C(=O)CCCCC(=O)O)=C(C)C1=O`, the survivor count under setting [2] is 9 of 9 on day 14.
Take `CSC1=NCc2c(sc3c2CCCC3)N1`: where the note is “dose: 600.0 mg/kg/injection, schedule: Q04DX004 (ip), vehicle: Klucel (hydroxypropylcellulose) (HPC)”, the survivor count was 1 of 10 on day 14.
Consider `COc1ccc(NC(=O)C2C(=O)C(=O)N(c3ccc(OC)cc3OC)C2=O)c(OC)c1` (stereo not drawn), for which the survivor count runs as follows: under setting [3], 5 of 10 on day 14; (dose: 800.0 mg/kg/injection, schedule: Q04DX004 (ip), vehicle: Klucel (hydroxypropylcellulose) (HPC)) 0 of 10 on day 14.
Turning to `CC(=O)OC1C(O)C(C)OC(OC2C(OC(=O)C3CCC4C(C3)OC3(CC(OC(=O)/C=C/c5ccccc5)C(C)CO3)C43CO3)OC(C)C(O)C2OC(C)=O)C1O` (stereo not drawn), the T/C reads like this: (dose: 4.5 mg/kg/injection, schedule: Q04DX004 (ip), vehicle: saline + alcohol) 126 [9 of 10 alive on day 14] and 127 % of control; (dose: 8.0 mg/kg/injection, schedule: Q01DX009 (ip), vehicle: saline + alcohol) 148 % of control; (dose: 8.0 mg/kg/injection, schedule: Q04DX004 (ip), vehicle: saline + alcohol) 134 % of control; (dose: 9.0 mg/kg/injection, schedule: Q04DX004 (ip), vehicle: saline + alcohol) 128 and 137 % of control; (dose: 16.0 mg/kg/injection, schedule: Q01DX009 (ip), vehicle: saline + alcohol) 132 [9 of 10 alive on day 14] and 148 % of control; under setting [1], 143 % of control [9 of 10 alive on day 14]. Also, the T/C is 137 and 139 % of control (dose: 18.0 mg/kg/injection, schedule: Q04DX004 (ip), vehicle: saline + alcohol); 131 and 148 % of control (dose: 36.0 mg/kg/injection, schedule: Q04DX004 (ip), vehicle: saline + alcohol). Moreover, the survivor count runs as follows: (dose: 32.0 mg/kg/injection, schedule: Q01DX009 (ip), vehicle: saline + alcohol) 1 of 10 on day 14; (dose: 64.0 mg/kg/injection, schedule: Q01DX009 (ip), vehicle: saline + alcohol) 0 of 10 on day 14; (dose: 72.0 mg/kg/injection, schedule: Q04DX004 (ip), vehicle: saline + alcohol) 1 of 10 on day 14 and 3 of 10 on day 14; (dose: 128.0 mg/kg/injection, schedule: Q01DX009 (ip), vehicle: saline + alcohol) 0 of 10 on day 14.
On to `CN1[C@H]2C=CC(=O)[C@]1(Cl)[C@H]1C(=O)N(c3ccccc3)C(=O)[C@@H]21`, for which the survivor count is recorded as 10 of 10 on day 14 under setting [2] and 7 of 10 on day 14 (dose: 400.0 mg/kg/injection, schedule: Q04DX004 (ip), vehicle: saline with Tween-80).
Take `[Cl][Pt][Cl].[NH-]C(CO)C(=O)O` (stereo not drawn): the survivor count by setting is: (dose: 100.0 mg/kg/injection, schedule: Q04DX004 (ip), vehicle: water) 5 of 10 on day 14; (dose: 200.0 mg/kg/injection, schedule: Q04DX004 (ip), vehicle: water) 0 of 10 on day 14.
Regarding `CO[C@@H]1C2=CC=CC=C[C@H]2n2c(=O)n(C)c(=O)n21`, the survivor count (dose: 600.0 mg/kg/injection, schedule: Q04DX004 (ip), vehicle: other) is on record as 0 of 10 on day 14.
Consider `CC1Oc2cc3c(-c4c(O)cc(O)c5c(O)c6c(cc45)OC(C)C(C)C6=O)c(O)cc(O)c3c(O)c2C(=O)C1C` (stereo not drawn), for which the T/C is, setting by setting: (dose: 2.5 mg/kg/injection, schedule: Q01DX009 (ip), vehicle: suspension in saline) 129 % of control; (dose: 2.5 mg/kg/injection, schedule: Q04DX004 (ip), vehicle: suspension in saline) 134 % of control; (dose: 5.0 mg/kg/injection, schedule: Q04DX004 (ip), vehicle: suspension in saline) 128, 135 [9 of 10 alive on day 14], 138 % of control; (dose: 8.33 mg/kg/injection, schedule: Q04DX004 (ip), vehicle: suspension in saline) 138 % of control. Moreover, the survivor count is 0 of 10 on day 14 (dose: 5.0 mg/kg/injection, schedule: Q01DX009 (ip), vehicle: suspension in saline); 0 of 10 on day 14 (dose: 10.0 mg/kg/injection, schedule: Q01DX009 (ip), vehicle: suspension in saline); 4 of 10 on day 14 (dose: 10.0 mg/kg/injection, schedule: Q04DX004 (ip), vehicle: suspension in saline); 7 of 10 on day 14 and 8 of 10 on day 14 (dose: 13.88 mg/kg/injection, schedule: Q04DX004 (ip), vehicle: suspension in saline); 0 of 10 on day 14 (dose: 20.0 mg/kg/injection, schedule: Q04DX004 (ip), vehicle: suspension in saline).
Take `CCCCCCCC1C(=O)OC2CC3C(C)=CC(=O)C(O)C3(C)C3C4(O)OCC23C1C(C)C4O` (stereo not drawn): the survivor count (dose: 40.0 mg/kg/injection, schedule: Q04DX004 (ip), vehicle: Klucel (hydroxypropylcellulose) (HPC)) is 0 of 10 on day 14.
On to `Cn1c2ccccc2c2ccc3c(c21)C(=O)C=CC3=O`, for which the survivor count runs as follows: (dose: 100.0 mg/kg/injection, schedule: Q04DX004 (ip), vehicle: Klucel (hydroxypropylcellulose) (HPC)) 2 of 10 on day 14; (dose: 200.0 mg/kg/injection, schedule: Q04DX004 (ip), vehicle: Klucel (hydroxypropylcellulose) (HPC)) 0 of 10 on day 14; under setting [3], 0 of 10 on day 14.
Consider `CC(=O)N1CN=C2Sc3ccccc3N2C1`, for which the survivor count (dose: 300.0 mg/kg/injection, schedule: Q04DX004 (ip), vehicle: Klucel (hydroxypropylcellulose) (HPC)) was 3 of 10 on day 14.
Regarding `CS(=O)(=O)OCCCCOS(C)(=O)=O`, the survivor count is 9 of 10 on day 14 (dose: 25.0 mg/kg/injection, schedule: Q04DX004 (ip), vehicle: saline with Tween-80); 8 of 10 on day 14 (dose: 50.0 mg/kg/injection, schedule: Q04DX004 (ip), vehicle: saline with Tween-80); 4 of 10 on day 14 (dose: 100.0 mg/kg/injection, schedule: Q04DX004 (ip), vehicle: saline with Tween-80).
Take `O=C(Nc1cccc(O)c1)C(Cl)=C(Cl)Cl`: the survivor count runs as follows: (dose: 25.0 mg/kg/injection, schedule: Q04DX004 (ip), vehicle: other) 1 of 10 on day 14; (dose: 50.0 mg/kg/injection, schedule: Q04DX004 (ip), vehicle: other) 0 of 10 on day 14; (dose: 100.0 mg/kg/injection, schedule: Q04DX004 (ip), vehicle: other) 0 of 10 on day 14.
Take `OCC1OC(n2cnc3cc(Cl)c(Cl)cc32)C(O)C1O` (stereo not drawn): the survivor count (dose: 1200.0 mg/kg/injection, schedule: Q04DX004 (ip), vehicle: saline with Tween-80) is 0 of 10 on day 14.
Turning to `CCCCCNc1ncnc2c(C)[nH]nc12`, the survivor count under setting [3] is recorded as 2 of 10 on day 14.
Regarding `Cc1c(O)/c(=C\O)c2nc3c(=O)ccc(C(=O)NCCN(C)C)c3[nH]c2c1=O`, the survivor count (dose: 400.0 mg/kg/injection, schedule: Q04DX004 (ip), vehicle: water) was 0 of 10 on day 14.
